The record followed here is doi:10.1101/524314.

Results are given in words; binding and its absence hold for the method and conditions named. Binding seen in cells or lysates may run through a third protein. Some binding calls cover weakened binding; strength is not graded here.

In experiment [1] the target is ribosomal protein L23 (Drosophila melanogaster (endogenous in embryo extract)) (UniProt P48159). As to the kind of experiment: cross-linking.
The target of experiment [2] is ribosomal protein L12 (Drosophila melanogaster (endogenous in embryo extract)) (UniProt Q9W1B9). In words: cross-linking.

For the substance “eukaryotic elongation factor eEF2 (from UniProt P13060 1-844)”, the binding result in experiment [1] and in experiment [2] was “binds” in each case.
